Entries after “also recorded” stand apart in the source; their conditions may differ.
How the values were obtained:
[1] = Reaction with N-acetylcysteamine (model for skin-bound sulfhydryl groups) in the presence of base, followed by 1H NMR; details: for covalent adduct formation with N-acetylcysteamine: in the presence of a base (DBN or triethylamine), chloroform
Text: As a model for skin-bound sulfhydryl groups (—SH) of cysteine residues in skin proteins, the compound N-acetylcysteamine was allowed to react with OSM in the presence of a catalytic amount of the base 1,5-diazabicyclo[4.3.0]non-5-ene (DBN) in chloroform solution.
As a model for skin-bound sulfhydryl groups (—SH) of cysteine residues in skin proteins, the compound N-acetylcysteamine was allowed to react with OCM in the presence of a catalytic amount of the base 1,5-diazabicyclo[4.3.0]non-5-ene (DBN) in chloroform solution.
As a model for skin bound sulfhydryl groups (—SH) of cysteine residues in skin proteins, the compound N-acetylcysteamine was allowed to react with DCPEG in the presence of a catalytic amount of the base 1,5-diazabicyclo[4.3.0]non-5-ene (DBN) in chloroform solution.
A solution of octadecyl S-sorbyl-3 -mercaptopropionate (10.9 mg, 0.024 mmol) in 0.3 mL of CDCl3 was added to a solution of N-acetylcysteamine (5.2 μL, 0.048 mmol) and DBN (3.1 μL, 0.025 mmol) in 0.3 mL of CDCl3. The mixture was immediately transferred to an NMR tube and the first spectrum was recorded at time=0. The reaction solution was allowed to stand at room temperature in the NMR tube for two days, and the course of the reaction was monitored by periodically recording the ^1H NMR spectrum. A total often ^1H NMR experiments were performed at time=0, 0.25, 0.5, 1, 1.5, 4.5, 12, 20.5, 26, and 39 hours.
The time course of the reaction of OSM with 2 equiv of N-acetylcysteamine in the presence of 1 equiv of DBN in 0.6 mL of CDCl3 was studied by recording ^1H NMR spectra at various times for 39 hours. The signals of the olefinic protons due to the sorbate group of OSM (δ 6.2-6.0 and δ 7.2) and that of the newly formed C═C bond of the monoadducts (δ 5.6-5.2) were monitored in particular. In the course of these experiments, it was observed that the signals at δ 6.2-6.0 and δ 7.2 disappeared, while those at δ 5.6-5.2 appeared over the first 1.5 hours of the reaction, which indicated the formation of the monoadducts. The olefinic protons signals of the monoadducts started to fade away gradually after 1.5 hours and became very weak by approximately 39 hours. These spectra may imply the formation of the diadduct.
The reaction of OCM with N-acetylcysteamine was carried out at room temperature as follows: 22.0 mg of OCM was dissolved in 0.6 mL of CDCl3 and 5.7 μL of N-acetylcysteamine (1 equivalent) was added. […] Then a catalytic amount (0.1 equiv) of the base DBN was added, and the NMR spectrum was recorded immediately and again after 5 minutes. […]
The reaction of DCPEG with N-acetylcysteamine was followed by NMR: 35.6 mg of DCPEG was dissolved in 0.7 mL CDCl3 and the spectrum was recorded before and after addition of N-acetylcysteamine (1 equivalent per crotonyl moiety). […]

[2] = Reaction with cysteine ethyl ester (model for skin-bound cysteine residues); details: under similar conditions (catalytic DBN, chloroform)

Row | Structure (SMILES) | reaction with N-acetylcysteamine before addition of base ([1]; 1 equivalent N-acetylcysteamine, CDCl3, room temperature, no DBN) | covalent adduct formation with N-acetylcysteamine [1] | covalent attachment to cysteine ethyl ester [2]
1 | C/C=C/C(=O)SCCC(=O)OCCCCCCCCCCCCCCCCCC [OCM, octadecyl S-crotonyl-3-mercaptopropionate] | no reaction had occurred | covalent bond formation occurred | reaction also occurred
2 | C/C=C/C=C/C(=O)OCCCCCCCCCCCCCCCCCC [OS, n-Octadecyl sorbate, reference compound] |  | react with N-acetylcysteamine | 
3 | C/C=C/C=C/C(=O)SCCC(=O)OCCCCCCCCCCCCCCCCCC [OSM, octadecyl S-sorbyl-3-mercaptopropionate] |  | react with N-acetylcysteamine; also recorded: covalent bond formation occurred | Covalent attachment also occurs
